Our source for the binding values is paper PMC9834408, “The SPOC domain is a phosphoserine binding module that bridges transcription machinery with co- and post-transcriptional regulators” (Nature Communications, 2023).

By UniProt entry, the sequences of proteins in these tests, tags left out.
UniProt P51114: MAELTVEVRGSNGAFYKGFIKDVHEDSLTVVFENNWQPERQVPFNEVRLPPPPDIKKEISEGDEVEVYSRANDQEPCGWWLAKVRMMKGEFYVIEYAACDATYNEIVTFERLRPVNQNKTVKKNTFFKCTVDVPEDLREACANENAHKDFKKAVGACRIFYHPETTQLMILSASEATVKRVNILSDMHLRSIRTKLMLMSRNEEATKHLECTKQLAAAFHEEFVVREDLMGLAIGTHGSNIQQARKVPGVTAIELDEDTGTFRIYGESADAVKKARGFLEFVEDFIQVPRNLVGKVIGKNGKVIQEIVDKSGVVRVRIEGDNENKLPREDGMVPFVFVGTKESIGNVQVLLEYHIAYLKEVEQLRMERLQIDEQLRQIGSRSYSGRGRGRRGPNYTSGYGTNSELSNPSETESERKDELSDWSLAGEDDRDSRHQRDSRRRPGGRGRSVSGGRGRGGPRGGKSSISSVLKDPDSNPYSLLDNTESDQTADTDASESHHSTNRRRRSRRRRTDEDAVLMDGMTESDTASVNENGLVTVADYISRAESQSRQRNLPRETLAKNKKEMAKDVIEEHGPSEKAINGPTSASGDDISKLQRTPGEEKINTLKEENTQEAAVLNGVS
UniProt P51116: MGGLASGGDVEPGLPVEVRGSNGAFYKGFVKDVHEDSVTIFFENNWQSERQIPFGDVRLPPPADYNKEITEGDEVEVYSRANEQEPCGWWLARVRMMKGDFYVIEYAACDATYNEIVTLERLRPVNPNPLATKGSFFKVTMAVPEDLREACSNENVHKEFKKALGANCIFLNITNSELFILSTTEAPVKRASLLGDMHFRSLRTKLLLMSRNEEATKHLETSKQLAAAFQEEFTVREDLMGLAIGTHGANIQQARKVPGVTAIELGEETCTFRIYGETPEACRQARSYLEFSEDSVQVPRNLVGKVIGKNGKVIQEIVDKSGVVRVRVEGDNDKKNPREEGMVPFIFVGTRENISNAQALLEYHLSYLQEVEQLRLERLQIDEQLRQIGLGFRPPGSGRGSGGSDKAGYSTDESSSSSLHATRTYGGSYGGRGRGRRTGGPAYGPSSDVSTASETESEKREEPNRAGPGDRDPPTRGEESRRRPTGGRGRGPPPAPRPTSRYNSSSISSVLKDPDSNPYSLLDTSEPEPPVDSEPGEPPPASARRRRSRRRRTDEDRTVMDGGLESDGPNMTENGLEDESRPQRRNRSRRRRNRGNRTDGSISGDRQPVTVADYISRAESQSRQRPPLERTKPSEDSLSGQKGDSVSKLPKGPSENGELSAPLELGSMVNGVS
UniProt P12004: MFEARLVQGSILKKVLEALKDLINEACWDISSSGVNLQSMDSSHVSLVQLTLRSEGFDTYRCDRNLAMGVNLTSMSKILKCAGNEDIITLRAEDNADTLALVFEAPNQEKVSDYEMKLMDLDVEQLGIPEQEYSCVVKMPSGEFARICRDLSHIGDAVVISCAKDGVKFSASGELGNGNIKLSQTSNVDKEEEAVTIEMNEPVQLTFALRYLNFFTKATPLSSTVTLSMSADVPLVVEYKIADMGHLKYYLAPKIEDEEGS
UniProt Q69YN4: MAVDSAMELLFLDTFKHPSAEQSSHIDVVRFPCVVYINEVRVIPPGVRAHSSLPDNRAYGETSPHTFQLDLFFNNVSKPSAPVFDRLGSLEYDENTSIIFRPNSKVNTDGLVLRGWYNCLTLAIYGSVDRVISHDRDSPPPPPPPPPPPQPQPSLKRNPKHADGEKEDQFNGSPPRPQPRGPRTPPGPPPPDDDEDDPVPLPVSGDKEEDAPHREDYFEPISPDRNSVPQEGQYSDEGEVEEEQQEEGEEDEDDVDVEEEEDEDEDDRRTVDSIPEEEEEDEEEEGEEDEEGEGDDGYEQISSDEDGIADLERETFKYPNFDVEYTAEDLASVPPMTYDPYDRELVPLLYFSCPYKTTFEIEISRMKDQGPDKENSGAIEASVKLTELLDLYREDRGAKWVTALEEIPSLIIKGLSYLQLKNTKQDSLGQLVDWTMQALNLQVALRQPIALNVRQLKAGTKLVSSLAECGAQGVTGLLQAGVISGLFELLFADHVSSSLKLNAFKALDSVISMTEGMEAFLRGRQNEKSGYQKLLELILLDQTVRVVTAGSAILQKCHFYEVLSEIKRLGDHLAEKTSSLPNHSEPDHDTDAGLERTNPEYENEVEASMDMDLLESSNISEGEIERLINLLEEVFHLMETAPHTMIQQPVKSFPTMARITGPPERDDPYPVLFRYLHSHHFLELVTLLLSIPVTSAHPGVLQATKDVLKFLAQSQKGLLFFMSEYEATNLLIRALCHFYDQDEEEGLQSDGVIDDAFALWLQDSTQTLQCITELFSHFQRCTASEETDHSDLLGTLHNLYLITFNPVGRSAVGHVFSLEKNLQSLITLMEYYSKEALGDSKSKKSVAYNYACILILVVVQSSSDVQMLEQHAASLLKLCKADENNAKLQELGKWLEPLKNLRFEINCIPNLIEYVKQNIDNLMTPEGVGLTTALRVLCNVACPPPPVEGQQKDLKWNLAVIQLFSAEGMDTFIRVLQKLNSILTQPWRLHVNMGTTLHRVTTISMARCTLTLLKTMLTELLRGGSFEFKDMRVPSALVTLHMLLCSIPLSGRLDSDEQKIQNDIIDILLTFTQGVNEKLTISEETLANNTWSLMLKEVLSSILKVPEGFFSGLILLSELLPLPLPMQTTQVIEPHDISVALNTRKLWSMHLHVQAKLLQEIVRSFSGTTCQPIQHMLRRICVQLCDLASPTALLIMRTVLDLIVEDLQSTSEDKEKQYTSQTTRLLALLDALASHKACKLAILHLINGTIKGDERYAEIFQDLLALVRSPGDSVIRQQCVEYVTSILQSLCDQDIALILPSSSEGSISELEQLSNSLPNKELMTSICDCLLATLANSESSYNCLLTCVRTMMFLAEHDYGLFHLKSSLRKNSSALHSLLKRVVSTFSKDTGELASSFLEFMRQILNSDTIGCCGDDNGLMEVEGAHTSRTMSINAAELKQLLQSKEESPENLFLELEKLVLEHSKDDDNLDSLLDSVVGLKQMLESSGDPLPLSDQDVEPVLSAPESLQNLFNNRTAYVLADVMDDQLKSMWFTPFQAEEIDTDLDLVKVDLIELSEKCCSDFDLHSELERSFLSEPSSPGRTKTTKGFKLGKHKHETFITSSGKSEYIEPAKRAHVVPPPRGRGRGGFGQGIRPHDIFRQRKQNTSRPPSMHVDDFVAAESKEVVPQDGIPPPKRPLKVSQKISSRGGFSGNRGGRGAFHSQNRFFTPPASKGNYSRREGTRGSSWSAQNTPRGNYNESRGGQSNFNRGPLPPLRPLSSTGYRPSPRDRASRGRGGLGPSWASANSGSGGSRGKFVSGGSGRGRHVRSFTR
UniProt Q5T200: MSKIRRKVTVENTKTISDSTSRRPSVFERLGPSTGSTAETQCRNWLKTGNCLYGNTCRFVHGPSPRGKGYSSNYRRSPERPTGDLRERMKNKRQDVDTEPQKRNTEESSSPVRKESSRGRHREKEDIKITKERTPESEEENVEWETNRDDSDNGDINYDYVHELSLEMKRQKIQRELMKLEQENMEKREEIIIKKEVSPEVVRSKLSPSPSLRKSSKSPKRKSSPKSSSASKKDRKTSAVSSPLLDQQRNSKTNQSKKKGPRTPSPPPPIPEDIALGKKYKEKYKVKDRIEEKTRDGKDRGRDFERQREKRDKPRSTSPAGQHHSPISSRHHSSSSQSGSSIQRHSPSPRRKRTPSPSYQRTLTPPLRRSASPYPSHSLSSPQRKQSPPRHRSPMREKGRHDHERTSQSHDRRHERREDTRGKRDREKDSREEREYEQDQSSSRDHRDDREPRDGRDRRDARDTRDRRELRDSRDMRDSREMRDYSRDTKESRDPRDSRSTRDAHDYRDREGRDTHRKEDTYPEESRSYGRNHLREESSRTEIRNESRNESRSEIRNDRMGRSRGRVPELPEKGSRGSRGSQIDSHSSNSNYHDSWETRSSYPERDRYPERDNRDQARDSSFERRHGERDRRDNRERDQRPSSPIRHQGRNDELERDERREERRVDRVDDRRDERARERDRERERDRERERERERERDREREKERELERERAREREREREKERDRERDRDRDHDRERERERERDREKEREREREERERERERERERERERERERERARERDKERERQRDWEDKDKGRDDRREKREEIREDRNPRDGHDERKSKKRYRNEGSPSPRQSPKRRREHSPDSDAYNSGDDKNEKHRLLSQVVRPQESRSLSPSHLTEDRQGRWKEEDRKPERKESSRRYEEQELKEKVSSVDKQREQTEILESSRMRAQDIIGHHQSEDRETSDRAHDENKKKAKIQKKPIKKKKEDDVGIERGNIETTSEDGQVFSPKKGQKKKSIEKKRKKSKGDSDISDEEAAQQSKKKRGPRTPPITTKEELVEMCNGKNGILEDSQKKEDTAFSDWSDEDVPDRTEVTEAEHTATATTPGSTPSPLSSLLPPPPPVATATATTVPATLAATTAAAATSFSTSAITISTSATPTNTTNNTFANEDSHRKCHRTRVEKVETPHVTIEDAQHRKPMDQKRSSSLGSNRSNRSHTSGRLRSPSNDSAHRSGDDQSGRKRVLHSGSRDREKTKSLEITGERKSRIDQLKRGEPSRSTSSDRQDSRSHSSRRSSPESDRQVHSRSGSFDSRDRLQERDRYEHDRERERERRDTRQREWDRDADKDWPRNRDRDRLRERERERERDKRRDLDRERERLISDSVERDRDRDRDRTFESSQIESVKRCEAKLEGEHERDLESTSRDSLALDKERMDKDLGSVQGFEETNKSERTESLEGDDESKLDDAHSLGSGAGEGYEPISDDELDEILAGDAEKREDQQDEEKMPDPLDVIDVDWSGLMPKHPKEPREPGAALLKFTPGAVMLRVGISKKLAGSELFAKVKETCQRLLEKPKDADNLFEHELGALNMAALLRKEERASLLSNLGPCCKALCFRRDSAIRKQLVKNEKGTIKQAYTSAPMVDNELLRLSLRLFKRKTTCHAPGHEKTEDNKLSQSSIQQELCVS

Results are given in words; binding and its absence hold for the method and conditions named. In cells and extracts the contact can be indirect. These calls come from enrichment with a bait or labelling near it, and not all partners need be listed. For some assays here: Tags and fused reporters may be left off the sequences shown.

Test [1] addresses SHARP-GFP (human (endogenous in HEK293T)) (UniProt Q96T58). Put plainly: affinity purification with mass spectrometry; anti-GFP immunoprecipitation (beads with cross-linked anti-GFP nanobody) from HEK293T cell lines expressing endogenously GFP-tagged SHARP WT or ΔSPOC; WT cells as control; three replicates.
Test [2] concerns the target 3×FLAG-NLS-RBM15-SPOC (human) (UniProt Q96T37). Put plainly: affinity purification with mass spectrometry; anti-FLAG M2 beads; 3×FLAG-NLS-SPOC domains expressed in HEK293T; lysis in 50 mM Tris-Cl pH 8, 150 mM NaCl, 0.1% Triton with benzonase; empty vector as control; three replicates.

Take FXR1 (from UniProt P51114 1-621): the binding entry in test [1] is “binds”.

Consider FXR2 (from UniProt P51116 1-673), for which the binding entry in test [1] is “binds”. PCNA (from UniProt P12004 1-261): the binding entry in test [2] is “binds”. The same measure, in the same setting: the same measure for “VIRMA/KIAA1429 (from UniProt Q69YN4 1-1812)”: “binds”. On the same count and under the same terms, under ZC3H13 (from UniProt Q5T200 1-1668) stands “binds”.
